In assay [1] the target is STAT3 (human (endogenous in primary CD4+ T cells)) (UniProt P40763). As to the kind of experiment: proximity ligation; activated human primary CD4+ T cells stimulated with 20 nM HyIL-6 (time course, peak at 30 min), also with or with only 2 uM MSC2530818 or 2 uM flavopiridol; fixed, methanol-permeabilised, stained with anti-STAT3 and anti-CDK8 or anti-CDK9; endogenous proteins.

The chains behind the UniProt entries cited, without tags or fusion partners. Where a name states a change or a piece, a line headed by the entry shows the natural chain unless it says otherwise.
UniProt P40763: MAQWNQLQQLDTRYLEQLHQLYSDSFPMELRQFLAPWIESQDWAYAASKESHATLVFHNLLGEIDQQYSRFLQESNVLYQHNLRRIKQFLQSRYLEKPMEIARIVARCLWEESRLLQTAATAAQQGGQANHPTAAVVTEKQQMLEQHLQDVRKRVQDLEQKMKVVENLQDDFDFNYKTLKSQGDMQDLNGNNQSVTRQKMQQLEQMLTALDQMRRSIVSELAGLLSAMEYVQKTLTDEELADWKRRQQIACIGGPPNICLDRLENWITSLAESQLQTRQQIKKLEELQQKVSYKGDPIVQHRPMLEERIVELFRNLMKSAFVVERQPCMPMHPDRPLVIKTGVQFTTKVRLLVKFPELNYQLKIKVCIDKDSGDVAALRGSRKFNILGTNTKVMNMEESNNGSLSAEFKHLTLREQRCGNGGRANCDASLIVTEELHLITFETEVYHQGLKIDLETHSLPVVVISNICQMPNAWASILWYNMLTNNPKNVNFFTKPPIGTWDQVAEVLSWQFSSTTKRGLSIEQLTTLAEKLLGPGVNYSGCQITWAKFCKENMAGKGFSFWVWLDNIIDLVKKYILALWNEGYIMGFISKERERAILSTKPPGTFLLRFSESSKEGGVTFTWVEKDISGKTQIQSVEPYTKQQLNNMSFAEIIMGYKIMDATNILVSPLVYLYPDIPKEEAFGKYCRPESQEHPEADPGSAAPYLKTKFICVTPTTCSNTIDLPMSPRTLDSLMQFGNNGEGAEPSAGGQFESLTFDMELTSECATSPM
UniProt P49336: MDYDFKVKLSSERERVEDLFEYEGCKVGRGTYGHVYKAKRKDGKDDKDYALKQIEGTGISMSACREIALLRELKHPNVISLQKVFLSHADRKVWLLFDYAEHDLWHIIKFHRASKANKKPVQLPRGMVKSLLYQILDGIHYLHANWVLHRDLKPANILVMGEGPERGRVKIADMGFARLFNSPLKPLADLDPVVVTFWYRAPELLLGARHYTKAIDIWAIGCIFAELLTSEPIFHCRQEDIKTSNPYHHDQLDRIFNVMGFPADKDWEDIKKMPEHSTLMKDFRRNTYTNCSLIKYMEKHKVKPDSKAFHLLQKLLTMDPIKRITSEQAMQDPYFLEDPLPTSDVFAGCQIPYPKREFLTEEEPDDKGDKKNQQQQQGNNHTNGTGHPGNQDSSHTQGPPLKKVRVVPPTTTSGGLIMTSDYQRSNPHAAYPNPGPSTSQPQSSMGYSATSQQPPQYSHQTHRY
UniProt P50750: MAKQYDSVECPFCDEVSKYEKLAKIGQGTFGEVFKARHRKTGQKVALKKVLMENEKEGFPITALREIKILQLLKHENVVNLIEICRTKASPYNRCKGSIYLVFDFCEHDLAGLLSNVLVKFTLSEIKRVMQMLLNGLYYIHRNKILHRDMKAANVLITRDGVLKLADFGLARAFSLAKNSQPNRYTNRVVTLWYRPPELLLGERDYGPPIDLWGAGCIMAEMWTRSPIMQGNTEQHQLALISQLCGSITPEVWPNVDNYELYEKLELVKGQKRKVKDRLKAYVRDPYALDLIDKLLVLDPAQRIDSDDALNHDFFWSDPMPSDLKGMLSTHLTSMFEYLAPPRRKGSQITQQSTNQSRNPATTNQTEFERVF

Assay [2] shares this target. As to the kind of experiment: proximity ligation; activated human primary CD4+ T cells, untreated (no HyIL-6, no inhibitor); fixed, methanol-permeabilised, stained with anti-STAT3 and anti-CDK8 or anti-CDK9; endogenous proteins.
For assay [3], the target named is STAT3 S727A-GFP (human) (UniProt P40763). Description: proximity ligation; STAT3 KnD Hut78 cells reconstituted with STAT3 WT-GFP or STAT3 S727A-GFP, unstimulated or stimulated with 20 nM HyIL-6 (time course); nuclear STAT3/CDK9 PLA signal read in GFP-positive cells.
Assay [4] concerns the target STAT3 WT-GFP (human) (UniProt P40763). Described as above.

No constants are given. Whether binding was seen depends on the method and setting. In cells and extracts the contact can be indirect. Some binding calls cover weakened binding; strength is not graded here.

On to “CDK8 (from UniProt P49336 1-464) (enzyme)”, for which the results for the binding result in assay [1] and in assay [2] were “binds” and “binds weakly”, respectively.
“CDK9 (from UniProt P50750 1-372) (enzyme)”: the binding result is listed as “binds” in assay [3], “binds” in assay [4], “binds” in assay [1] and “binds weakly” in assay [2].

The record behind these values is publication PMC7773550.
